Data source: PubChem BioAssay AID504793 (Drosophila RNAi Screening Center, 2011)
Screen: 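Genes required for cells to halt at G2/M after double-strand DNA breaks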 (primary screen). Cell system: Drosophila S2R+ cells. Reagents: long dsRNA against Drosophila genes, about 0.25 µg dsRNA per well. Timing: 4 days of dsRNA, then 4 hours of drug before read-out. Conditions: doxorubicin 0.5 µM for 4 hours to cause double-strand breaks, in cells also given a low, harmless dose of dsRNA against nbs to sensitise the assay. Read-out: 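Per-well count of mitotic cells stained for phospho-histone H3 after doxorubicin exposure, used as mitotic index; counts are raw and not normalised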. Scale: mitotic cells: higher = more cells in mitosis, weaker G2 arrest. Call rule: 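a call needs confirmation in secondary tests, with other dsRNAs and a check of mitotic timing without damage, not just a high primary count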. Meaning of the calls: active = confirmed in follow-up tests; inactive = not confirmed.
The screen tested about 23,000 reagents; below is an unselected part of those with a known target gene and a result. Of all reagents, 62 (0.27%) were called active. 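Calls come from follow-up tests whose scores are not deposited, so confirmed genes may have low counts here; counts are not normalised per plate.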 Raw values vary from plate to plate and are shown uncorrected. A number with no mark means an inactive call. The numbers tell different reagents against one gene apart. Names joined by + are all predicted targets of the reagent. Reagent sequences are not shown.

| predicted target | reagent no. | mitotic cells, replicate 1 | mitotic cells, replicate 2 |
| --- | --- | --- | --- |
| Atg8b (Autophagy-related 8b) | 1 | 13 | – |
| Atg8b (Autophagy-related 8b) | 2 | 8 | – |
| Or65c (Odorant receptor 65c) | 1 | 8 | – |
| CG15771 | 1 | 6 | – |
| vimar (visceral mesodermal armadillo-repeats) | 1 | 4 | – |
| CG14711 + Zaf1 | 1 | 4 | – |
| CG14711 + Zaf1 | 2 | 7 | – |
| DNAlig3 (DNA ligase 3) | 1 | 6 | – |
| DNAlig3 (DNA ligase 3) | 2 | 3 | – |
| CG7720 | 1 | 6 | – |
| CG7720 | 2 | 6 | – |
| Fur1 (Furin 1) | 1 | 12 | – |
| Fur1 (Furin 1) | 2 | 9 | – |
| Dph5 (Diphthamide methyltransferase) | 1 | 3 | – |
| Dph5 (Diphthamide methyltransferase) | 2 | 11 | – |
| CG5126 | 1 | 7 | – |
| tweek | 1 | 5 | – |
| tweek | 2 | 3 | – |
| tweek | 3 | 20 | – |
| ATPsyndelta (ATP synthase, delta subunit) | 1 | 10 | – |
| gsb-n (gooseberry-neuro) | 1 | 4 | – |
| gsb-n (gooseberry-neuro) | 2 | 5 | – |
| CG10874 | 1 | 8 | – |
| CG10874 | 2 | 2 | – |
| CG32281 | 1 | 5 | – |
| CG31673 | 1 | 11 | – |
| Ir48b (Ionotropic receptor 48b) | 1 | 2 | – |
| CG18469 | 1 | 2 | – |
| CG31269 | 1 | 6 | – |
| CG31269 | 2 | 5 | – |
| Tep4 (Thioester-containing protein 4) | 1 | 5 | – |
| Ugt49C1 (UDP-glycosyltransferase family 49 member C1) | 1 | 9 | – |
| Ugt49C1 (UDP-glycosyltransferase family 49 member C1) | 2 | 5 | – |
| CG3088 | 1 | 8 | – |
| Tsp42Eq (Tetraspanin 42Eq) | 1 | 2 | – |
| CG6443 | 1 | 2 | – |
| CG6443 | 2 | 4 | – |
| CG3356 | 1 | 10 | – |
| CG3356 | 2 | 8 | – |
| primo-2 + primo-1 | 1 | 5 | – |
| primo-2 + primo-1 | 2 | 4 | – |
| Lip2 (Lipase 2) | 1 | 2 | – |
| Lip2 (Lipase 2) | 2 | 5 | – |
| tplus3b + tplus3a | 1 | 11 | – |
| CG11060 | 1 | 4 | – |
| yin | 1 | 12 | – |
| yin | 2 | 15 | – |
| CG1631 | 1 | 4 | – |
| CG32259 | 1 | 4 | – |
| hwt (heavyweight) | 1 | 6 | – |
| hwt (heavyweight) | 2 | 3 | – |
| hwt (heavyweight) | 3 | 2 | – |
| CG9213 | 1 | 11 | – |
| CG9213 | 2 | 3 | – |
| CG8850 | 1 | 8 | – |
| CG8850 | 2 | 3 | – |
| CG7071 + Muted | 1 | 4 | – |
| Tsp74F (Tetraspanin 74F) | 1 | 7 | – |
| nAChRbeta2 (nicotinic Acetylcholine Receptor beta2) | 1 | 4 | – |
| Corin | 1 | 10 | – |
| Corin | 2 | 4 | – |
| Nelf-E (Negative elongation factor E) | 1 | 5 | – |
| Toll-4 | 1 | 4 | – |
| HP1c (Heterochromatin Protein 1c) | 1 | 10 | 13 |
| HP1c (Heterochromatin Protein 1c) | 2 | 3 | – |
| CG9812 | 1 | 8 | – |
| Lnpk (Lunapark) | 1 | 4 | – |
| Lnpk (Lunapark) | 2 | 9 | – |
| CG6650 | 1 | 3 | – |
| CG4278 | 1 | 9 | – |
| BomS6 (Bomanin Short 6) | 1 | 6 | – |
| BomS6 (Bomanin Short 6) | 2 | 5 | – |
| Obp99d (Odorant-binding protein 99d) | 1 | 14 | – |
| Klp64D (Kinesin-like protein at 64D) | 1 | 4 | – |
| spag (spaghetti) | 1 | 5 | – |

A run of entries taken from the entries so far, as a working copy:
| predicted target | reagent no. | mitotic cells, replicate 1 | mitotic cells, replicate 2 |
| --- | --- | --- | --- |
| hwt (heavyweight) | 2 | 3 | – |
| hwt (heavyweight) | 3 | 2 | – |
| CG9213 | 1 | 11 | – |
| CG9213 | 2 | 3 | – |
| CG8850 | 1 | 8 | – |
